This is one part of the list. Shown are side measurements of this screen, not its main read-out; they come without a call. Compounds called inactive in the main read-out are mostly missing here. Words in brackets tell the shape of the fitted curve; partial curves, single points and poor fits give uncertain potencies.
Assay: qHTS Assay for Lipid Storage Modulators in Drosophila S3 Cells;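 on cell number change: cells counted by Cell Tracker Red CMTPX staining in the red channel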
Settings: BODIPY lipid droplet fluorescence, 18-24 h; for cell number change: measured here: cell count max response, cells fed with added oleic acid
Outline: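 Laser-scanning cytometry quantifies lipid droplet accumulation (500–530 nm total intensity; droplet/cell object ratio) in oleic acid-fed (400 uM added) Drosophila S3 cells treated with a concentration series. 20 uM Triacsin C defined 100% inhibition.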

[1] = measured here: lipid fluorescence (Fed channel) AC50, cells fed with added oleic acid
[2] = measured here: cell number channel AC50, cells fed with added oleic acid

Row | SMILES | cell number change [%] | AC50 [1] | AC50 [2]
1 | CCOCC(=O)Nc1ccccc1C(=O)OCC | 66.7 | 18.4 µM [rising, partial curve] | –
2 | CCCCn1c(N)c(N(CCC(C)C)C(=O)C2CCCC2)c(=O)[nH]c1=O | 21.3 | 0.259 µM [rising, partial curve, poor fit] | –
3 | COc1ccccc1NC(=O)NC1(C(=O)N2CCN(C)CC2)CCCCC1 | 8.4 | 29.1 µM [falling, single point] | –
4 | O=C(COC(=O)c1ccc(O)cc1O)NC1CCCCCC1 | -18.5 | 29.1 µM [falling, single point] | –
5 | c1ccc(-c2nn3c(C4CCCCC4)nnc3s2)cc1 | 9.41 | 2.06 µM [rising, single point] | –
6 | C=CCn1c(=O)/c(=C/c2ccc(Cl)cc2)s/c1=C(/C#N)c1nnc2n1CCCCC2 | -4.87 | 0.651 µM [rising, partial curve, poor fit] | –
7 | O=C(c1ccc(F)cc1)N1CCN=C1c1ccccc1 | 1 | 3.66 µM [rising, single point] | –
8 | COc1cccc(C(C(=O)NC2CCCC2)N(C(=O)c2csnn2)C2CC2)c1 (configuration not stated) | -7.62 | – | –
9 | CC1CN(Cc2ccccc2)c2nc3c(c(=O)[nH]c(=O)n3C)n2C1 (configuration not stated) | 41.6 | 7.31 µM [rising, partial curve] | 6.51 µM [rising, partial curve]
10 | O=C(Cc1ccccc1)Nc1c(C(=O)N2CCOCC2)cnn1-c1ccccc1 | -0.143 | 2.59 µM [falling, full curve, poor fit] | –
11 | O=C(NNC(=O)c1ccccc1-c1ccccc1C(=O)O)c1cccc([N+](=O)[O-])c1 | -4.91 | – | –
12 | Cc1ccc(S(=O)(=O)NCCC(=O)Oc2ccc3ccc(=O)oc3c2)cc1 | – | 0.92 µM [falling, full curve, poor fit] | –
13 | C=C(C)Cn1c(CCNC(=O)c2ccco2)nc2ccccc21 | – | 0.0082 µM [falling, full curve, poor fit] | –
14 | COc1ccc(NC(=O)NC2(C(=O)N3CCCC(C)C3)CCCCC2)cc1 (configuration not stated) | 30.8 | – | –
15 | CN1C(=O)CSC1=S | 14.4 | 0.58 µM [falling, single point] | –
16 | Cc1ccc(S(=O)(=O)NC(=O)N2CCCC(C)(C)C2)cc1 | 1.98 | – | –
17 | CC(=O)Nc1ccc(/C=C(\C#N)C(=O)NCc2ccccc2)cc1 | -44 | 2.31 µM [falling, partial curve, poor fit] | 23.1 µM [falling, single point]
18 | Cc1ccccc1C1C(C#N)=C2N=C(N)c3ccccc3N2C2=C1C(=O)CCC2 (configuration not stated) | – | 6.51 µM [rising, partial curve, poor fit] | 4.11 µM [rising, partial curve, poor fit]
19 | Cc1nn(CCCC(=O)NCCCN2CCN(C)CC2)c(=O)c2c1sc1ccccc12 | 4.45 | – | –
20 | CCOC(=O)c1[nH]c2cc3c(cc2c1NC(=O)CN1CC(C)CC(C)C1)OCO3 (configuration not stated) | -0.511 | 2.59 µM [rising, partial curve] | –
21 | CC(C)N(C(=O)COC(=O)c1ccc(Cl)c(S(N)(=O)=O)c1)C(C)C | -25.7 | 29.1 µM [falling, single point] | –

Row | SMILES | cell number change [%] | AC50 [1] | AC50 [2]
22 | COc1ccccc1-c1cc(C(=O)N/N=C\c2cn(C)nc2C)c2ccccc2n1 | 15.2 | 1.03 µM [rising, partial curve] | –
23 | CN(CCO)c1ccc(-c2n[nH]c(=O)c3ccccc23)cc1[N+](=O)[O-] | 15.6 | 0.58 µM [falling, single point] | –
24 | O=C(CCc1ccc(S(=O)(=O)N2CCOCC2)cc1)N/N=C/c1ccc(F)cc1F | 79.2 | – | 16.4 µM [rising, single point]
25 | CC(C)C(OC(=O)/C=C/c1ccc2c(c1)OCO2)C(=O)NC(N)=O (configuration not stated) | 90.7 | 0.13 µM [rising, single point] | 29.1 µM [rising, partial curve]
26 | O=C(CN1CCC(NC(=O)C2CC2)CC1)Nc1ccccc1[N+](=O)[O-] | 21.1 | 0.562 µM [rising, full curve, poor fit] | –
27 | CCC(=O)c1ccc(OCC(=O)N2CCc3cc(OC)c(OC)cc3C2)cc1 | – | 6.51 µM [rising, single point] | –
28 | COc1ccc(/C=C(/NC(=O)c2ccc(OC)c(OC)c2)C(=O)NCCc2c[nH]c3ccccc23)cc1 | 8.28 | – | –
29 | CNc1c([N+](=O)[O-])cnn1-c1ccc(C)cc1 | -23.6 | 14.6 µM [falling, partial curve, poor fit] | –
30 | Nc1nc(SCCO)[nH]c(=O)c1NC(=O)c1ccccc1F | 23.2 | 0.0058 µM [rising, full curve, poor fit] | 0.00461 µM [rising, full curve, poor fit]
31 | CCN(C(=O)c1c(-c2ccccc2Cl)noc1C)C1CCCCC1 | -23 | – | 0.231 µM [falling, full curve, poor fit]
32 | Cc1ccc(NC(=O)NC(=O)N(C(C)C)S(C)(=O)=O)nc1 | -31 | 5.8 µM [falling, full curve] | 0.146 µM [falling, full curve, poor fit]
33 | O=C(Nc1ncnc2sc3c(c12)CCCCC3)c1ccc(F)cc1 | -34.8 | 0.116 µM [rising, full curve, poor fit] | 16.4 µM [falling, single point]
34 | O=C(CS(=O)(=O)Cc1ccccc1)N1CCc2ccccc2C1 | -8.27 | 20.6 µM [rising, single point] | –
35 | COCc1cc(C)nc(N2CCNCC2)c1C#N | -73.8 | 6.51 µM [falling, single point] | 5.8 µM [falling, partial curve, poor fit]
36 | Cc1ncc(CN2CCCC(C(=O)Nc3ccc(-c4cccc(F)c4)cc3)C2)s1 (configuration not stated) | -20.4 | – | –
37 | CC(C)CC(OC(=O)c1cccs1)C(=O)NCc1cccs1 (configuration not stated) | 9.48 | 16.4 µM [rising, partial curve, poor fit] | –
38 | CCCS(=O)(=O)c1nc(S(=O)(=O)c2ccc(C)cc2)c(NCCCN2CCOCC2)s1 | 18.6 | 25.9 µM [rising, single point] | –
39 | Cc1cc(=O)oc2cc(NC(=O)c3cccc(S(=O)(=O)N(C)C)c3)ccc12 | -31.6 | – | –
40 | Cc1nc2n[nH]c(N)c2c2c1COC(C)(C)C2 | -7.32 | 3.26 µM [rising, single point] | –
41 | Fc1ccc(-c2csc(=S)[nH]2)cc1 | 37.3 | 0.112 µM [rising, full curve] | 0.794 µM [rising, full curve, poor fit]
42 | Cc1ccccc1C(=O)Nc1ccccc1-c1nnn(CC(=O)Nc2ccc3c(c2)OCCO3)n1 | 16.3 | – | –

Given as tab-separated lines: four of the compounds above
Row	SMILES	cell number change [%]	AC50 [1]	AC50 [2]
34	O=C(CS(=O)(=O)Cc1ccccc1)N1CCc2ccccc2C1	-8.27	20.6 µM [rising, single point]	–
35	COCc1cc(C)nc(N2CCNCC2)c1C#N	-73.8	6.51 µM [falling, single point]	5.8 µM [falling, partial curve, poor fit]
36	Cc1ncc(CN2CCCC(C(=O)Nc3ccc(-c4cccc(F)c4)cc3)C2)s1 (configuration not stated)	-20.4	–	–
37	CC(C)CC(OC(=O)c1cccs1)C(=O)NCc1cccs1 (configuration not stated)	9.48	16.4 µM [rising, partial curve, poor fit]	–

Remaining list, next part:

Row | SMILES | cell number change [%] | AC50 [1] | AC50 [2]
43 | O=C(O)CCNS(=O)(=O)c1cccc(Br)c1 | -8.8 | – | –
44 | O=C(Nc1ccccc1N1CCCC1)c1ccc2ccccc2c1 | 19.6 | – | 0.00731 µM [rising, full curve, poor fit]
45 | O=Cc1cc(Br)c(OC(=O)N2CCOCC2)c(Br)c1 | -33.3 | – | –
46 | COC(=O)CC1COc2ccccc2N1C(=O)c1cc(OC)c(OC)c(OC)c1 (configuration not stated) | 10.7 | 0.0651 µM [rising, full curve, poor fit] | –
47 | Cc1nn(-c2ccccc2)c(C)c1/C=N/NC(=O)c1cc(-c2ccc(Cl)s2)[nH]n1 | -33.9 | – | 7.31 µM [falling, partial curve, poor fit]
48 | CCCCNC(=O)Nc1cc(C(=O)OC)ccc1C | 25.4 | 0.00517 µM [rising, full curve, poor fit] | –
49 | O=C(N/N=C1/CCSC1)c1cc(Br)ccc1O | – | 0.00517 µM [falling, full curve, poor fit] | –
50 | O=C(NCCO)C1(c2ccc(Cl)cc2)CCCC1 | – | 6.51 µM [falling, single point] | –
51 | CN(C)CCn1c(=O)n(-c2cccc(Cl)c2)c(=O)c2c3c(sc21)CCCCC3 | -19.6 | 32.6 µM [falling, single point] | –
52 | COc1cc(/C=C2/N=C(C3CCCCC3)OC2=O)cc(OC)c1OC | 1.08 | 2.31 µM [falling, partial curve] | –
53 | Nc1ccc(N2CCCCC2)cc1N1CCCCC1 | -47.8 | 29.1 µM [falling, single point] | 29.1 µM [falling, single point]
54 | Oc1ccc(/C=N/Nc2cccc(Cl)n2)c(O)c1 | -1.72 | 20.6 µM [falling, single point] | –
55 | O=S(=O)(c1ccc(F)cc1)N1CCN(c2ccc(F)cc2)CC1 | -32.8 | 32.6 µM [falling, single point] | –
56 | Cc1nc(C(=O)NNC(=O)c2ccc(Cl)cc2)c(C(F)(F)F)o1 | 16.3 | – | –
57 | NC(=S)N=Nc1c(O)n(CC(=O)Nc2ccccc2)c2ccccc12 | 131 | 32.6 µM [rising, single point] | 20.6 µM [rising, partial curve]
58 | Cc1cc(C(=O)OCC(=O)NC(C)c2ccc(F)cc2)c(C)o1 (configuration not stated) | -5.19 | 6.51 µM [rising, single point] | 6.51 µM [rising, single point]
59 | OCCNC(=S)NCc1ccccc1 | -20.4 | 0.184 µM [falling, full curve] | –
60 | O=C(NCCCN1CCN(Cc2ccccc2)CC1)c1nnc(Cc2c(F)cccc2Cl)o1 | -1.52 | 18.4 µM [rising, partial curve] | 0.146 µM [falling, full curve, poor fit]
61 | CCO[C@@H]1OC(C(=O)Nc2ccccc2)=C[C@H](c2ccc3c(c2)OCO3)[C@H]1CCCO | -7.94 | 2.06 µM [rising, single point] | –

Reference: PubChem BioAssay AID2685 (National Center for Advancing Translational Sciences (NCATS), 2010)
